Measurements reported in PubChem BioAssay AID1159584 (Peter MacCallum Cancer Centre, 2016)
Here is an unselected part of about 18,000 deposited reagents. Not given: the amount of reagent, the time to read-out.

Purpose: 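Genes whose loss is lethal only together with E-cadherin loss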 (primary screen)
Cells: human MCF10A breast epithelial cells, parental and CDH1-null
Reagent: siRNA against human genes
Measurement: 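ATP luminescence (CellTiter-Glo) viability per line relative to mean mock wells over all plates, and the ratio of CDH1-null to parental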
Reading the numbers: CDH1-null / parental viability ratio: higher = CDH1-null cells survive relatively better than parental; CDH1-null viability vs mock: higher = more viable CDH1-null cells; parental viability vs mock: higher = more viable parental cells

gene knocked down | CDH1-null / parental viability ratio | CDH1-null viability vs mock (fraction of mock) | parental viability vs mock (fraction of mock)
VCF2 | 1.42 | 0.54 | 0.38
TENT4A | 0.99 | 0.67 | 0.68
OR6C3 | 1.38 | 0.44 | 0.32
PYGB | 1.12 | 0.9 | 0.8
ALS2CL | 0.74 | 0.54 | 0.73
HSPA6 | 0.95 | 0.8 | 0.84
MMD2 | 0.92 | 0.72 | 0.78
NAV3 | 0.99 | 1.08 | 1.09
SPART | 1.13 | 1.04 | 0.92
EPHB1 | 0.9 | 0.76 | 0.84
STX12 | 0.99 | 0.87 | 0.88
WIPI2 | 1.38 | 0.66 | 0.48
HLA-L | 1.19 | 1.05 | 0.88
NFKBIA | 1.31 | 0.76 | 0.58
ONECUT1 | 0.99 | 0.97 | 0.98
RTN4RL1 | 0.99 | 0.66 | 0.67
OR10C1 | 1.13 | 0.88 | 0.78
F7 | 1.12 | 0.58 | 0.52
MAU2 | 1.02 | 0.59 | 0.58
SLC25A31 | 1.09 | 1.02 | 0.94
MICOS13 | 0.73 | 0.64 | 0.88
EN1 | 0.8 | 0.64 | 0.8
MTX2 | 0.95 | 0.59 | 0.62
C17orf67 | 1.54 | 0.97 | 0.63
CLDN14 | 1.42 | 0.78 | 0.55
LGALS9 | 0.87 | 0.75 | 0.86
VIRMA | 0.9 | 0.85 | 0.94
TMEM86A | 1.36 | 0.68 | 0.5
OR5H15 | 0.91 | 1.02 | 1.12
PMAIP1 | 1.1 | 0.68 | 0.62
TSNAXIP1 | 1 | 0.77 | 0.77
PYCR2 | 1.09 | 0.58 | 0.53
FAM177A1 | 0.64 | 0.23 | 0.36
PACS1 | 0.73 | 0.44 | 0.6
KRTAP4-2 | 0.98 | 0.82 | 0.84
TOMM34 | 0.87 | 0.33 | 0.38
SEMA3A | 1.2 | 1.06 | 0.88
POLR2J3 | 1 | 0.4 | 0.4
SAMD4B | 0.94 | 0.32 | 0.34
LETMD1 | 0.97 | 0.76 | 0.78
KRT36 | 1.24 | 1.04 | 0.84
TTLL8 | 1.6 | 0.48 | 0.3
NKX6-1 | 1.02 | 0.94 | 0.92
MRAP2 | 0.97 | 0.7 | 0.72
NANOS1 | 1.09 | 0.72 | 0.66
GRIN3B | 1.09 | 1.07 | 0.98
NUDT12 | 1.39 | 0.86 | 0.62
CARHSP1 | 1.21 | 0.7 | 0.58
PTP4A3 | 1.42 | 0.74 | 0.52
TMC2 | 1.15 | 0.9 | 0.78
LHX3 | 1.05 | 0.78 | 0.74
MUCL3 | 1.26 | 0.96 | 0.76
OR51A7 | 0.67 | 0.55 | 0.82
OR2L8 | 1.73 | 0.52 | 0.3
CRYGA | 1 | 0.6 | 0.6
IGHMBP2 | 0.81 | 0.52 | 0.64
LYPD5 | 0.95 | 0.78 | 0.82
PAF1 | 0.96 | 0.48 | 0.5
CRIPTO | 1.03 | 0.62 | 0.6
PHRF1 | 0.97 | 0.6 | 0.62
SIGLECL1 | 0.85 | 0.58 | 0.68
IGFBP2 | 0.9 | 0.76 | 0.84
SLC22A6 | 1.04 | 0.77 | 0.74
TNFSF15 | 0.96 | 0.66 | 0.69
MAGEB10 | 1.06 | 0.68 | 0.64
VTN | 1.06 | 0.82 | 0.77
RAB30 | 1.04 | 1.02 | 0.98
OR4D2 | 0.98 | 0.54 | 0.55
